2 molecules from paper doi:10.1101/423210 can be followed below.

Results are given in words; binding and its absence hold for the method and conditions named. In cells and extracts the contact can be indirect. Binding calls can cover weak binding; strength is not graded here.

The target of test [1] is T1, Ago3 (Drosophila melanogaster (endogenous in ovaries)) (UniProt Q7PLK0).
T1 sequence: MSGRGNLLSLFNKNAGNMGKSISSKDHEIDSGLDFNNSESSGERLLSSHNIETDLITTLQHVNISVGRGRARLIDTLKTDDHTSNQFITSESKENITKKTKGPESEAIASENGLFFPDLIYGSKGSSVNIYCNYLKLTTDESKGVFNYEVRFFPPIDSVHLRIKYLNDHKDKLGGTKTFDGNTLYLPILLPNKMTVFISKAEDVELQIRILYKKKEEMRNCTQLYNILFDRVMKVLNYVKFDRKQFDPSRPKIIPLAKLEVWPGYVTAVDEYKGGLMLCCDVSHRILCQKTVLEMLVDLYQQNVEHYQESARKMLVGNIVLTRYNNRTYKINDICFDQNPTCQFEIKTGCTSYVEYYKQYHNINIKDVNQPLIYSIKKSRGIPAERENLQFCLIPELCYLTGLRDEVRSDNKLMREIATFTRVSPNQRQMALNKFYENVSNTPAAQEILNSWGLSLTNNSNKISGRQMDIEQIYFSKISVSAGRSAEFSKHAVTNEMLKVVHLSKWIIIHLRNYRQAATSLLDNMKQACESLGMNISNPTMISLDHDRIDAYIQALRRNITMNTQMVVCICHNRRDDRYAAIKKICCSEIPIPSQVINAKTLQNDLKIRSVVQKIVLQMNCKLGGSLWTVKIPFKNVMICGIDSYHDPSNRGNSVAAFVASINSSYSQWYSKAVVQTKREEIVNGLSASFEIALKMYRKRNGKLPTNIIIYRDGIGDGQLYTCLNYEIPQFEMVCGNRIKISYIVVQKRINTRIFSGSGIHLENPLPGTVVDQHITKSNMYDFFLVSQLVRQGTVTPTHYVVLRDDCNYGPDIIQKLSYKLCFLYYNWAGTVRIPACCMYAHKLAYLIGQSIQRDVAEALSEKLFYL
Put plainly: co-IP.

The target in test [2] is Hop (Hsp70/Hsp90 organizing protein homolog) (Drosophila melanogaster (endogenous in ovaries)) (UniProt Q9VPN5). Put plainly: co-IP.

For the molecule “Hop (Hsp70/Hsp90 organizing protein homolog) (from UniProt Q9VPN5)”, in test [1], the binding result is “binds”.

B1: Ago3 (protein, UniProt Q7PLK0 1-867)
chain: MSGRGNLLSLFNKNAGNMGKSISSKDHEIDSGLDFNNSESSGERLLSSHNIETDLITTLQHVNISVGRGRARLIDTLKTDDHTSNQFITSESKENITKKTKGPESEAIASENGLFFPDLIYGSKGSSVNIYCNYLKLTTDESKGVFNYEVRFFPPIDSVHLRIKYLNDHKDKLGGTKTFDGNTLYLPILLPNKMTVFISKAEDVELQIRILYKKKEEMRNCTQLYNILFDRVMKVLNYVKFDRKQFDPSRPKIIPLAKLEVWPGYVTAVDEYKGGLMLCCDVSHRILCQKTVLEMLVDLYQQNVEHYQESARKMLVGNIVLTRYNNRTYKINDICFDQNPTCQFEIKTGCTSYVEYYKQYHNINIKDVNQPLIYSIKKSRGIPAERENLQFCLIPELCYLTGLRDEVRSDNKLMREIATFTRVSPNQRQMALNKFYENVSNTPAAQEILNSWGLSLTNNSNKISGRQMDIEQIYFSKISVSAGRSAEFSKHAVTNEMLKVVHLSKWIIIHLRNYRQAATSLLDNMKQACESLGMNISNPTMISLDHDRIDAYIQALRRNITMNTQMVVCICHNRRDDRYAAIKKICCSEIPIPSQVINAKTLQNDLKIRSVVQKIVLQMNCKLGGSLWTVKIPFKNVMICGIDSYHDPSNRGNSVAAFVASINSSYSQWYSKAVVQTKREEIVNGLSASFEIALKMYRKRNGKLPTNIIIYRDGIGDGQLYTCLNYEIPQFEMVCGNRIKISYIVVQKRINTRIFSGSGIHLENPLPGTVVDQHITKSNMYDFFLVSQLVRQGTVTPTHYVVLRDDCNYGPDIIQKLSYKLCFLYYNWAGTVRIPACCMYAHKLAYLIGQSIQRDVAEALSEKLFYL
In the case of B1, the binding entry in test [2] is given as “binds”.
